Reference: article PMC6756021
Results are given in words; binding and its absence hold for the method and conditions named. Binding seen in cells or lysates may run through a third protein.

Sequences of proteins named here, by UniProt entry; tags and fusion partners are left off. Residues count along the entry.
UniProt O95994, residues 21-175: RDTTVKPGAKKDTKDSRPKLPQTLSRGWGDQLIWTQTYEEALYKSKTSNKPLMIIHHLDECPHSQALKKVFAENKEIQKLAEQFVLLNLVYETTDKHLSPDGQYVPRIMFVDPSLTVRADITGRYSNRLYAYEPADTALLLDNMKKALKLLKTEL
UniProt Q96CV9: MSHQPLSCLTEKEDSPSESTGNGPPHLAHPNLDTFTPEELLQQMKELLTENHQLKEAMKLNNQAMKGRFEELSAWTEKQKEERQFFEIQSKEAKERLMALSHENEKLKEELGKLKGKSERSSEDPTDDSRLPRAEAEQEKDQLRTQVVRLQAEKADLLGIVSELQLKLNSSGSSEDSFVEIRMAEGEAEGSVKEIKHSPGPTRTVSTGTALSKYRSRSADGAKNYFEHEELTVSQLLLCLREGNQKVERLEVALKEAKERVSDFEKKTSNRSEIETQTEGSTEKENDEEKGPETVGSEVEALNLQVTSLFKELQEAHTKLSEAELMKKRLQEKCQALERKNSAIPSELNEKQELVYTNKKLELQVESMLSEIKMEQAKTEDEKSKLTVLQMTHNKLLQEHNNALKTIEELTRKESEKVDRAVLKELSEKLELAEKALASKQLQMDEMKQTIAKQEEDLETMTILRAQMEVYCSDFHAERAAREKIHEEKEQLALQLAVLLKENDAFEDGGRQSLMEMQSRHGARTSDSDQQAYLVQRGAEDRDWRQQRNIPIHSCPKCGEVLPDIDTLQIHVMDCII

B1: NDP52, endogenous (protein, UniProt Q13137 1-446)
chain: MEETIKDPPTSAVLLDHCHFSQVIFNSVEKFYIPGGDVTCHYTFTQHFIPRRKDWIGIFRVGWKTTREYYTFMWVTLPIDLNNKSAKQQEVQFKAYYLPKDDEYYQFCYVDEDGVVRGASIPFQFRPENEEDILVVTTQGEVEEIEQHNKELCKENQELKDSCISLQKQNSDMQAELQKKQEELETLQSINKKLELKVKEQKDYWETELLQLKEQNQKMSSENEKMGIRVDQLQAQLSTQEKEMEKLVQGDQDKTEQLEQLKKENDHLFLSLTEQRKDQKKLEQTVEQMKQNETTAMKKQQELMDENFDLSKRLSENEIICNALQRQKERLEGENDLLKRENSRLLSYMGLDFNSLPYQVPTSDEGGARQNPGLAYGNPYSGIQESSSPSPLSIKKCPICKADDICDHTLEQQQMQPLCFNCPICDKIFPATEKQIFEDHVFCHSL

Biological target: Anterior gradient 2 (AGR2), endogenous (human (endogenous in A549)) (UniProt O95994)
Experiment: co-IP; endogenous proteins; lysates (RIPA buffer) of MG132-treated cells (A549 named for Fig. 6b) precipitated with anti-AGR2 antibody and protein G plus-agarose, 4 °C overnight; blot for the autophagy receptor

| binding | Molecule |
| --- | --- |
| no binding | p62, endogenous (from UniProt Q13501 1-440) |
| no binding | OPTN, endogenous (from UniProt Q96CV9 1-577) |
| no binding | B1 |
